Experimental data: PubChem BioAssay AID743121 (NCATS, 2013)
Here is an unselected part of about 26,000 reagents tested. 167 of them (0.63%) were called active. 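Calls are per gene from RSA p-values that are not deposited; an individual active-marked siRNA can sensitise only weakly.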 The numbers tell different reagents against one gene apart. Not all columns of the deposit are shown.

Aim: 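Genes whose silencing strengthens cell killing by camptothecin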 (primary screen)
Cells: MDA-MB-231 cells, a human breast cancer line
Knock-down reagent: single siRNA against human genes, 20 nM siRNA (0.8 pmol per well)
Time to read-out: 120 h (drug added 48 h after transfection, read 72 h later)
Treatment: camptothecin 20 nM (about EC30) for 72 h; vehicle 0.1% DMSO in parallel plates
Read-out: 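CellTiter-Glo ATP signal, scaled to control siRNA as percent viability; sensitisation given as log2 of untreated divided by camptothecin-treated viability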
Scale: log2 vehicle/camptothecin viability: higher = stronger sensitisation to camptothecin; viability with camptothecin: higher = more viable cells
Rule for the call: 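Active genes have an RSA gene-level p-value below 0.001, computed from the ratios of their separate siRNAs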

For ATRNL1 (GeneID 26033) #1, what does the deposit list?
log2 vehicle/camptothecin viability: 0.111; viability with camptothecin (% of control): 72.5; call: inactive

What did the screen give for ATRNL1 (GeneID 26033) #2?
log2 vehicle/camptothecin viability: -0.508; viability with camptothecin (% of control): 135; call: inactive

For ATRNL1 (GeneID 26033) #3, what was measured?
log2 vehicle/camptothecin viability: -0.679; viability with camptothecin (% of control): 82.6; call: inactive

How did the screen score LPAR3 (GeneID 23566) #1?
log2 vehicle/camptothecin viability: -0.591; viability with camptothecin (% of control): 67.9; call: inactive

How did the screen score LPAR3 (GeneID 23566) #2?
log2 vehicle/camptothecin viability: -0.0412; viability with camptothecin (% of control): 62.1; call: inactive

What did the screen give for LPAR3 (GeneID 23566) #3?
log2 vehicle/camptothecin viability: 0.145; viability with camptothecin (% of control): 52.7; call: inactive

With LPAR3 (GeneID 23566) #4, what was measured?
log2 vehicle/camptothecin viability: 0.24; viability with camptothecin (% of control): 45.5; call: inactive

For TBCE (GeneID 6905) #1, how do the results read?
log2 vehicle/camptothecin viability: 0.074; viability with camptothecin (% of control): 26.2; call: inactive

How did the screen score TBCE (GeneID 6905) #2?
log2 vehicle/camptothecin viability: -0.162; viability with camptothecin (% of control): 83.8; call: inactive

What is on record for TBCE (GeneID 6905) #3?
log2 vehicle/camptothecin viability: -0.0831; viability with camptothecin (% of control): 68.9; call: inactive

2 entries from above, reformatted.
gene symbol,reagent no.,log2 vehicle/camptothecin viability,viability with camptothecin (% of control),call
LPAR3 (GeneID 23566),4,0.24,45.5,inactive
TBCE (GeneID 6905),1,0.074,26.2,inactive

The results go on:
With SKI (GeneID 6497) #1, how do the results read?
log2 vehicle/camptothecin viability: -0.0955; viability with camptothecin (% of control): 107; call: inactive

How did the screen score SKI (GeneID 6497) #2?
log2 vehicle/camptothecin viability: -0.186; viability with camptothecin (% of control): 52.2; call: inactive

What is on record for SKI (GeneID 6497) #3?
log2 vehicle/camptothecin viability: -0.179; viability with camptothecin (% of control): 82.1; call: inactive

With OR10R2 (GeneID 343406) #1, what does the deposit list?
log2 vehicle/camptothecin viability: -0.172; viability with camptothecin (% of control): 103; call: inactive

How did the screen score OR10R2 (GeneID 343406) #2?
log2 vehicle/camptothecin viability: 0.205; viability with camptothecin (% of control): 28.1; call: inactive

How did the screen score OR10R2 (GeneID 343406) #3?
log2 vehicle/camptothecin viability: -0.138; viability with camptothecin (% of control): 61.6; call: inactive

What is on record for OR10R2 (GeneID 343406) #4?
log2 vehicle/camptothecin viability: -0.352; viability with camptothecin (% of control): 117; call: inactive

What did the screen give for PDE10A (GeneID 10846) #1?
log2 vehicle/camptothecin viability: -0.222; viability with camptothecin (% of control): 70.3; call: inactive

What is on record for PDE10A (GeneID 10846) #2?
log2 vehicle/camptothecin viability: -0.159; viability with camptothecin (% of control): 100; call: inactive

With PDE10A (GeneID 10846) #3, what does the deposit list?
log2 vehicle/camptothecin viability: -0.452; viability with camptothecin (% of control): 63.3; call: inactive

How did the screen score PDE10A (GeneID 10846) #4?
log2 vehicle/camptothecin viability: -0.27; viability with camptothecin (% of control): 90.2; call: inactive

What is on record for PRKDC (GeneID 5591) #1?
log2 vehicle/camptothecin viability: -0.00688; viability with camptothecin (% of control): 92.4; call: inactive

With PRKDC (GeneID 5591) #2, what does the deposit list?
log2 vehicle/camptothecin viability: -0.446; viability with camptothecin (% of control): 70.6; call: inactive

What is on record for PRKDC (GeneID 5591) #3?
log2 vehicle/camptothecin viability: -0.106; viability with camptothecin (% of control): 94; call: inactive

For PRKDC (GeneID 5591) #4, what does the deposit list?
log2 vehicle/camptothecin viability: -0.0161; viability with camptothecin (% of control): 63.3; call: inactive
